The text below walks through data of publication PMC2868043, “The Yeast Cell Fusion Protein Prm1p Requires Covalent Dimerization to Promote Membrane Fusion” (PLoS ONE, 2010).

Results are given in words; binding and its absence hold for the method and conditions named. For some assays here: In cells and extracts the contact can be indirect. Some results given as binding are weak or reduced against the parent protein; the word gives no strength. Where a sequence is shown, tags or fusion partners need not be part of it.

The target of assay [1] is prm1-C308S-GFP (S. cerevisiae) (UniProt P53835). The assay is described as follows: non-reducing SDS-PAGE and Western blot; whole cell lysate, reducing agent omitted from the sample buffer; cells induced with 10 µg/ml α-factor for 90 min (GFP alleles, anti-GFP blot) or with galactose (HA-PRM1, anti-HA blot); shows only SDS-resistant covalent dimers.
Assay [2] deals with T1, Prm1-myc (S. cerevisiae) (UniProt P53835).
T1 sequence: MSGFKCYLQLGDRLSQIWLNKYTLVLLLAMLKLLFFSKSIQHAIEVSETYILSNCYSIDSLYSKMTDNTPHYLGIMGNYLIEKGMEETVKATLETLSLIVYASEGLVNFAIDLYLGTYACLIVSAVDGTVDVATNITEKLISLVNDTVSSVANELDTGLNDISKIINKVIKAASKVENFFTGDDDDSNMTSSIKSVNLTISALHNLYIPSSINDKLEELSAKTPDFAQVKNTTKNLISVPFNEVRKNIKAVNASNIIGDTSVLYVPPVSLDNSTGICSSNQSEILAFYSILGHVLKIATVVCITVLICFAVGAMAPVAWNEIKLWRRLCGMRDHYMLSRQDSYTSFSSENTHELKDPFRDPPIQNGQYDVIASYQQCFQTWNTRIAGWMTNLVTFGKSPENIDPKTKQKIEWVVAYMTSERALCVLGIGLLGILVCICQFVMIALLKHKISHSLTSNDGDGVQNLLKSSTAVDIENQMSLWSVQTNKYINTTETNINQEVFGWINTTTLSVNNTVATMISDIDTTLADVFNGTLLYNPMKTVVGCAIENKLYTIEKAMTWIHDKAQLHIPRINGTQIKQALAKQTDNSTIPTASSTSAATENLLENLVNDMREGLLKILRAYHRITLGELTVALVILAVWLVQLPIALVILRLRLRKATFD
The assay is described as follows: co-IP; tagged PRM1 alleles co-expressed in the same cells, mated on YPD at 30°C for 3 h; membranes solubilised in 1% Triton X-100 (50 mM HEPES, 100 mM KOAc, 2 mM Mg(OAc)2, 1 mM EDTA); α-myc (9E10) agarose, 2 h at 4°C; eluted with 2% SDS; α-myc and α-GFP blots.

Assay [3] deals with T1, Prm1-myc (S. cerevisiae). The assay can be described thus: non-reducing SDS-PAGE and Western blot; blots of input and eluate of the α-myc immunoprecipitation from cells co-expressing PRM1-myc and a GFP-tagged mutant allele (Figure 4B); shows only covalent dimers.
The target in assay [4] is prm1-C424S-GFP (S. cerevisiae) (UniProt P53835). The assay can be described thus: non-reducing SDS-PAGE and Western blot; whole cell lysate, reducing agent omitted from the sample buffer; cells induced with 10 µg/ml α-factor for 90 min (GFP alleles, anti-GFP blot) or with galactose (HA-PRM1, anti-HA blot); shows only SDS-resistant covalent dimers.
For assay [5], the target named is prm1-C377S-GFP (S. cerevisiae) (UniProt P53835). The assay is described as above.
For assay [6], the target named is prm1-C329S-GFP (S. cerevisiae) (UniProt P53835). Described as above.

B1: prm1-C308S-GFP (protein, UniProt P53835 1-661)
chain: MSGFKCYLQLGDRLSQIWLNKYTLVLLLAMLKLLFFSKSIQHAIEVSETYILSNCYSIDSLYSKMTDNTPHYLGIMGNYLIEKGMEETVKATLETLSLIVYASEGLVNFAIDLYLGTYACLIVSAVDGTVDVATNITEKLISLVNDTVSSVANELDTGLNDISKIINKVIKAASKVENFFTGDDDDSNMTSSIKSVNLTISALHNLYIPSSINDKLEELSAKTPDFAQVKNTTKNLISVPFNEVRKNIKAVNASNIIGDTSVLYVPPVSLDNSTGICSSNQSEILAFYSILGHVLKIATVVCITVLISFAVGAMAPVAWNEIKLWRRLCGMRDHYMLSRQDSYTSFSSENTHELKDPFRDPPIQNGQYDVIASYQQCFQTWNTRIAGWMTNLVTFGKSPENIDPKTKQKIEWVVAYMTSERALCVLGIGLLGILVCICQFVMIALLKHKISHSLTSNDGDGVQNLLKSSTAVDIENQMSLWSVQTNKYINTTETNINQEVFGWINTTTLSVNNTVATMISDIDTTLADVFNGTLLYNPMKTVVGCAIENKLYTIEKAMTWIHDKAQLHIPRINGTQIKQALAKQTDNSTIPTASSTSAATENLLENLVNDMREGLLKILRAYHRITLGELTVALVILAVWLVQLPIALVILRLRLRKATFD
Regarding B1, in assay [1], the binding entry is listed as “binds”.

B2: prm1-C120S-GFP (protein, UniProt P53835 1-661)
chain: MSGFKCYLQLGDRLSQIWLNKYTLVLLLAMLKLLFFSKSIQHAIEVSETYILSNCYSIDSLYSKMTDNTPHYLGIMGNYLIEKGMEETVKATLETLSLIVYASEGLVNFAIDLYLGTYASLIVSAVDGTVDVATNITEKLISLVNDTVSSVANELDTGLNDISKIINKVIKAASKVENFFTGDDDDSNMTSSIKSVNLTISALHNLYIPSSINDKLEELSAKTPDFAQVKNTTKNLISVPFNEVRKNIKAVNASNIIGDTSVLYVPPVSLDNSTGICSSNQSEILAFYSILGHVLKIATVVCITVLICFAVGAMAPVAWNEIKLWRRLCGMRDHYMLSRQDSYTSFSSENTHELKDPFRDPPIQNGQYDVIASYQQCFQTWNTRIAGWMTNLVTFGKSPENIDPKTKQKIEWVVAYMTSERALCVLGIGLLGILVCICQFVMIALLKHKISHSLTSNDGDGVQNLLKSSTAVDIENQMSLWSVQTNKYINTTETNINQEVFGWINTTTLSVNNTVATMISDIDTTLADVFNGTLLYNPMKTVVGCAIENKLYTIEKAMTWIHDKAQLHIPRINGTQIKQALAKQTDNSTIPTASSTSAATENLLENLVNDMREGLLKILRAYHRITLGELTVALVILAVWLVQLPIALVILRLRLRKATFD
With B2, the binding entry with Prm1-myc (S. cerevisiae) [2] and in the assay with Prm1-myc (S. cerevisiae) [3] was “binds” throughout.

B3: prm1-C424S-GFP (protein, UniProt P53835 1-661)
chain: MSGFKCYLQLGDRLSQIWLNKYTLVLLLAMLKLLFFSKSIQHAIEVSETYILSNCYSIDSLYSKMTDNTPHYLGIMGNYLIEKGMEETVKATLETLSLIVYASEGLVNFAIDLYLGTYACLIVSAVDGTVDVATNITEKLISLVNDTVSSVANELDTGLNDISKIINKVIKAASKVENFFTGDDDDSNMTSSIKSVNLTISALHNLYIPSSINDKLEELSAKTPDFAQVKNTTKNLISVPFNEVRKNIKAVNASNIIGDTSVLYVPPVSLDNSTGICSSNQSEILAFYSILGHVLKIATVVCITVLICFAVGAMAPVAWNEIKLWRRLCGMRDHYMLSRQDSYTSFSSENTHELKDPFRDPPIQNGQYDVIASYQQCFQTWNTRIAGWMTNLVTFGKSPENIDPKTKQKIEWVVAYMTSERALSVLGIGLLGILVCICQFVMIALLKHKISHSLTSNDGDGVQNLLKSSTAVDIENQMSLWSVQTNKYINTTETNINQEVFGWINTTTLSVNNTVATMISDIDTTLADVFNGTLLYNPMKTVVGCAIENKLYTIEKAMTWIHDKAQLHIPRINGTQIKQALAKQTDNSTIPTASSTSAATENLLENLVNDMREGLLKILRAYHRITLGELTVALVILAVWLVQLPIALVILRLRLRKATFD
As for B3, the binding result in assay [4] is recorded as “binds”.

B4: prm1-C377S-GFP (protein, UniProt P53835 1-661)
chain: MSGFKCYLQLGDRLSQIWLNKYTLVLLLAMLKLLFFSKSIQHAIEVSETYILSNCYSIDSLYSKMTDNTPHYLGIMGNYLIEKGMEETVKATLETLSLIVYASEGLVNFAIDLYLGTYACLIVSAVDGTVDVATNITEKLISLVNDTVSSVANELDTGLNDISKIINKVIKAASKVENFFTGDDDDSNMTSSIKSVNLTISALHNLYIPSSINDKLEELSAKTPDFAQVKNTTKNLISVPFNEVRKNIKAVNASNIIGDTSVLYVPPVSLDNSTGICSSNQSEILAFYSILGHVLKIATVVCITVLICFAVGAMAPVAWNEIKLWRRLCGMRDHYMLSRQDSYTSFSSENTHELKDPFRDPPIQNGQYDVIASYQQSFQTWNTRIAGWMTNLVTFGKSPENIDPKTKQKIEWVVAYMTSERALCVLGIGLLGILVCICQFVMIALLKHKISHSLTSNDGDGVQNLLKSSTAVDIENQMSLWSVQTNKYINTTETNINQEVFGWINTTTLSVNNTVATMISDIDTTLADVFNGTLLYNPMKTVVGCAIENKLYTIEKAMTWIHDKAQLHIPRINGTQIKQALAKQTDNSTIPTASSTSAATENLLENLVNDMREGLLKILRAYHRITLGELTVALVILAVWLVQLPIALVILRLRLRKATFD
On to B4, for which the binding entry in assay [5] is reported as “binds”.

B5: prm1-C545S-GFP (protein, UniProt P53835 1-661)
chain: MSGFKCYLQLGDRLSQIWLNKYTLVLLLAMLKLLFFSKSIQHAIEVSETYILSNCYSIDSLYSKMTDNTPHYLGIMGNYLIEKGMEETVKATLETLSLIVYASEGLVNFAIDLYLGTYACLIVSAVDGTVDVATNITEKLISLVNDTVSSVANELDTGLNDISKIINKVIKAASKVENFFTGDDDDSNMTSSIKSVNLTISALHNLYIPSSINDKLEELSAKTPDFAQVKNTTKNLISVPFNEVRKNIKAVNASNIIGDTSVLYVPPVSLDNSTGICSSNQSEILAFYSILGHVLKIATVVCITVLICFAVGAMAPVAWNEIKLWRRLCGMRDHYMLSRQDSYTSFSSENTHELKDPFRDPPIQNGQYDVIASYQQCFQTWNTRIAGWMTNLVTFGKSPENIDPKTKQKIEWVVAYMTSERALCVLGIGLLGILVCICQFVMIALLKHKISHSLTSNDGDGVQNLLKSSTAVDIENQMSLWSVQTNKYINTTETNINQEVFGWINTTTLSVNNTVATMISDIDTTLADVFNGTLLYNPMKTVVGSAIENKLYTIEKAMTWIHDKAQLHIPRINGTQIKQALAKQTDNSTIPTASSTSAATENLLENLVNDMREGLLKILRAYHRITLGELTVALVILAVWLVQLPIALVILRLRLRKATFD
In the case of B5, the binding entry with Prm1-myc (S. cerevisiae) [2] and with Prm1-myc (S. cerevisiae) [3] was “binds” throughout.

B6: prm1-C329S-GFP (protein, UniProt P53835 1-661)
chain: MSGFKCYLQLGDRLSQIWLNKYTLVLLLAMLKLLFFSKSIQHAIEVSETYILSNCYSIDSLYSKMTDNTPHYLGIMGNYLIEKGMEETVKATLETLSLIVYASEGLVNFAIDLYLGTYACLIVSAVDGTVDVATNITEKLISLVNDTVSSVANELDTGLNDISKIINKVIKAASKVENFFTGDDDDSNMTSSIKSVNLTISALHNLYIPSSINDKLEELSAKTPDFAQVKNTTKNLISVPFNEVRKNIKAVNASNIIGDTSVLYVPPVSLDNSTGICSSNQSEILAFYSILGHVLKIATVVCITVLICFAVGAMAPVAWNEIKLWRRLSGMRDHYMLSRQDSYTSFSSENTHELKDPFRDPPIQNGQYDVIASYQQCFQTWNTRIAGWMTNLVTFGKSPENIDPKTKQKIEWVVAYMTSERALCVLGIGLLGILVCICQFVMIALLKHKISHSLTSNDGDGVQNLLKSSTAVDIENQMSLWSVQTNKYINTTETNINQEVFGWINTTTLSVNNTVATMISDIDTTLADVFNGTLLYNPMKTVVGCAIENKLYTIEKAMTWIHDKAQLHIPRINGTQIKQALAKQTDNSTIPTASSTSAATENLLENLVNDMREGLLKILRAYHRITLGELTVALVILAVWLVQLPIALVILRLRLRKATFD
With B6, the binding result in assay [6] is listed as “binds”.
